No constants are given. Whether binding was seen depends on the method and setting.
Target: recombinant TNF-α (UniProt P01375)
Assay: SPR; TNF-α immobilised on a COOH sensor chip (imSPR-Pro); analyte injected at 30 µL/min, 200 s association, 600 s dissociation; 10 mM HEPES-NaOH, 150 mM NaCl, 0.05% Tween-20, pH (7.4 or 8.0) not told for the TNF-α table; 1:1 Langmuir fit; both purified

Amino acid sequences for entries named in this document (tags omitted). Residues count along the entry.
UniProt P01375, residues 77-233: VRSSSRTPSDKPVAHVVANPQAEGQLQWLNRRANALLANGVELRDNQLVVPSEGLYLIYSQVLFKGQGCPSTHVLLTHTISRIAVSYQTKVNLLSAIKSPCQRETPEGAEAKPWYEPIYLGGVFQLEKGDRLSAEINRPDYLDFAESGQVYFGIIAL
UniProt P02769, residues 25-607: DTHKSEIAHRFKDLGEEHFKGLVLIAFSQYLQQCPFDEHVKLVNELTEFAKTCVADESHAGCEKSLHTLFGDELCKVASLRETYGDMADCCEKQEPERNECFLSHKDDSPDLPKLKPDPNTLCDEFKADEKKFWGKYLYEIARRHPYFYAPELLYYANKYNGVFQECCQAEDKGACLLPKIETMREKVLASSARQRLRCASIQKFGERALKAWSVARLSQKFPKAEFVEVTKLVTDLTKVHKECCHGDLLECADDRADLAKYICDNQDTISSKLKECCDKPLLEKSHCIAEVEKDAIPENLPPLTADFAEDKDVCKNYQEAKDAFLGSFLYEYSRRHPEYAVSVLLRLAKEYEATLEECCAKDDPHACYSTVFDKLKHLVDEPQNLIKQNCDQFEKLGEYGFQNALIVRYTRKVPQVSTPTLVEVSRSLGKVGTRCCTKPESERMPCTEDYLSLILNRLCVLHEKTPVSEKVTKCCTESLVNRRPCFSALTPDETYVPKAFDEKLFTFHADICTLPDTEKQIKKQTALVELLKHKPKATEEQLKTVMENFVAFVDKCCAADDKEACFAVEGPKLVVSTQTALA

binding: no binding
Substance: Serum albumin (from UniProt P02769 25-607)
